Patent US20140296265A1, “Method of Treating Lymphoma Using Pyridopyrimidinone Inhibitors of PI3K/mTOR” (Sanofi, priority 2011, published 2014)

Test: Phase 1 dose-expansion lymphoma cohort: safety and tolerability
Format: in vivo, human
Conditions: sixteen subjects
From the text: The following phase 1 study was designed to evaluate the safety and pharmacokinetics of Compound A administered as a continuous daily dosing regimen in an expansion cohort of subjects with relapsed or refractory lymphoma.
This was a Phase 1, open-label, non-randomized trial of Compound A given orally as a single agent in subjects with lymphoma. The maximum tolerated dose expansion cohort planned enrollment was at least 15 subjects.
The primary objective was to determine the safety and tolerability of Compound A administered orally, twice daily, as a continuous daily dosing regimen to subjects with relapsed or refractory lymphoma.
The key eligibility include the following: • Histologically confirmed diagnosis of relapsed or refractory lymphoma • Measureable disease • Adequate bone marrow function defined as: • ANC≧1000/mm3 (chronic lymphocytic leukemia with ANC≧500/mm3) • Platelets≧30,000/mm3 • Hemoglobin≧8 g/dL • Availability of archival or fresh tumor tissue • No prior therapy with a selective PI3K inhibitor • Written informed consent.

CCn1c(=O)c(-c2ccn[nH]2)cc2c(C)nc(N)nc21 [Compound A, 2-amino-8-ethyl-4-methyl-6-(1H-pyrazol-5-yl)pyrido[2,3-d]pyrimidin-7(8H)-one]
Median duration of therapy, weeks (range): 9 (1-66) weeks
